According to patent publication US10513547B2, “Peptides and combination of peptides and scaffolds thereof for use in immunotherapy against colorectal carcinoma (CRC) and other cancers” (Immatics Biotechnologies GmbH, priority 2015, dated 2019):

Key:
[1] = system: HLA molecules from shock-frozen tissue samples (CRC, other tumors, normal tissues); assay: Identification and label-free relative LC-MS quantitation of HLA-presented tumor associated peptides (presentation profiles, XPRESIDENT); parameters: species or system human; key to Peptide Presentation (presentation score): very highly over-presented on tumors compared to a panel of normal tissues (+++); highly over-presented on tumors compared to a panel of normal tissues (++); over-presented on tumors compared to a panel of normal tissues (+); conditions: for Other relevant organs/diseases: additional tumor types: over-presented on more than 5% of measured tumor samples, or presented on more than 5% with ratio of geometric means tumor vs normal larger than 3; for Additional Entities (additional tumor types on which the peptide was found): over-presentation on more than 5% of the measured tumor samples, or presentation on more than 5% of the measured tumor samples with ratio of geometric means tumor vs normal tissues larger than 3; for Peptide Presentation (presentation score): over-presentation on tumors compared to a panel of normal tissues
[2] = system: source genes of the peptides in CRC and normal tissues; assay: mRNA expression profiling of source genes encoding the peptides (Affymetrix microarrays); parameters: species or system human; key: very highly over-expressed in tumors compared to a panel of normal tissues (+++); highly over-expressed in tumors compared to a panel of normal tissues (++); over-expressed in tumors compared to a panel of normal tissues (+); conditions: over-expression in tumors compared to a panel of normal tissues

Substance	Other relevant organs/diseases [1]	Additional Entities (additional tumor types on which the peptide was found) [1]	Gene Expression (expression score of source gene) [2]	Peptide Presentation (presentation score) [1]	number of cancer tissues with detectable presentation of the peptide ([1]; all samples with detectable presentation, all tumor types)	number of normal tissues with detectable presentation of the peptide ([1]; normal tissue panel as in FIG. 1A-C)
147: peptide found in KDM5C (gene looked up) (TLTELRAFL; listed as Homo sapiens) [compound 147]	Kidney	CLL, Uterine Cancer, Gallbladder Cancer, Bile Duct Cancer, NHL	+			
225: peptide found in TOP2A (gene looked up) (YLYGQTTTYL; listed as Homo sapiens) [compound 225]	Lung, Kidney, Stomach, Liver, Melanoma, Ovary, Esophagus		+++	+		
29: peptide found in AP3D1 (gene looked up) (QMLDVAIRV; listed as Homo sapiens) [compound 29]	Leukocytes	BRCA	+			
75: peptide found in CFTR (gene looked up) (EMIENIQSV; listed as Homo sapiens) [compound 75]		Gallbladder Cancer, Bile Duct Cancer	+++	+		
172: peptide found in COPG1 (gene looked up) (LLLDTVTMQV; listed as Homo sapiens) [compound 172]	Kidney, Melanoma, Ovary	Urinary bladder cancer, Gallbladder Cancer, Bile Duct Cancer, AML	+	+		
190: peptide found in NCAPD2 (gene looked up) (AMAEMVLQV; listed as Homo sapiens) [compound 190]	Lung	SCLC, CLL, BRCA, Urinary bladder cancer, Gallbladder Cancer, Bile Duct Cancer, AML, NHL	+			
8: peptide found in HSPD1 (gene looked up) (ALMLQGVDLL; listed as Homo sapiens) [compound 8]	Pancreas, Leukocytes	BRCA, Melanoma, Urinary bladder cancer, AML	+	+++		
68: peptide found in PTPRO (gene looked up) (SILQFVHMV; listed as Homo sapiens) [compound 68]			+	++		
183: peptide found in AGK (gene looked up) (TLQEVVTGV; listed as Homo sapiens) [compound 183]	Prostate, Breast	CLL, Melanoma, Urinary bladder cancer, Uterine Cancer, NHL	++	+		
92: peptide found in PARN (gene looked up) (WIDDTSAFV; listed as Homo sapiens) [compound 92]	Melanoma		+	+++		
90: peptide found in EBNA1BP2 (gene looked up) (GLLKPGLNVVL; listed as Homo sapiens) [compound 90]	Lung, Esophagus	Urinary bladder cancer, AML	++	+		
184: peptide found in PRKDC (gene looked up) (SLLDENNVSSYL; listed as Homo sapiens) [compound 184]	Lung, Kidney, Liver, Pancreas, Prostate, MCC, Melanoma, Ovary, Esophagus	SCLC, CLL, BRCA, Urinary bladder cancer, Gallbladder Cancer, Bile Duct Cancer, AML, NHL, OC	+			
240: peptide found in RCN1 (gene looked up) (VLAPRVLRA; listed as Homo sapiens) [compound 240]	Lung, Kidney, Brain, Liver, Pancreas, Ovary		++	++		
124: peptide found in AURKB (gene looked up) (RVLPPSALQSV; listed as Homo sapiens) [compound 124]	Lung, Liver, MCC, Melanoma, Ovary, Esophagus	SCLC, BRCA, Urinary bladder cancer, Uterine Cancer, Gallbladder Cancer, Bile Duct Cancer, AML, NHL, PC	++	++		
160: peptide found in SYNJ2 (gene looked up) (KLLEFDQLQL; listed as Homo sapiens) [compound 160]	Lung, Kidney, Leukocytes, Ovary	SCLC	+	++		
257: peptide found in CNOT1 (gene looked up) (SLADFMQEV; listed as Homo sapiens) [compound 257]	Lung, Prostate, MCC, Ovary		+	++		

Substance	Other relevant organs/diseases [1]	Additional Entities (additional tumor types on which the peptide was found) [1]	Gene Expression (expression score of source gene) [2]	Peptide Presentation (presentation score) [1]	number of cancer tissues with detectable presentation of the peptide ([1]; all samples with detectable presentation, all tumor types)	number of normal tissues with detectable presentation of the peptide ([1]; normal tissue panel as in FIG. 1A-C)
17: peptide found in SLC12A2 (gene looked up) (ALAAARVEL; listed as Homo sapiens) [compound 17]			+++	+++		
241: peptide found in CCNB1 (gene looked up) (ILIDWLVQV; listed as Homo sapiens) [compound 241]	Lung, Kidney, Brain, Liver, Pancreas, Ovary, Esophagus		+++	+		
239: peptide found in KIF15 (gene looked up) (QLIEKNWLL; listed as Homo sapiens) [compound 239]	Lung, Liver, Leukocytes, Ovary, Esophagus		+++	+++		
89: peptide found in ITGA6 (gene looked up) (SLIEYEFRV; listed as Homo sapiens) [compound 89]	Liver, Esophagus		++	++		
112: peptide found in GALNT7 (gene looked up) (KLGQVLIYL; listed as Homo sapiens) [compound 112]			++	+++		
81: peptide found in TGIF1 (gene looked up) (ALLSQQTHL; listed as Homo sapiens) [compound 81]	Esophagus	Urinary bladder cancer, AML	+	++		
64: peptide found in SOX9 (gene looked up) (KTLGKLWRL; listed as Homo sapiens) [compound 64]		Melanoma	++	+++		
77: peptide found in DDX5 (gene looked up) (SLLKRDFGA; listed as Homo sapiens) [compound 77]	Lung, Breast	SCLC, Melanoma, Esophageal Cancer, Urinary bladder cancer, Uterine Cancer, NHL	+	+		
135: peptide found in CENPE (gene looked up) (KLQEEIPVL; listed as Homo sapiens) [compound 135]	Lung	BRCA, Melanoma, NHL	+	+++		
223: peptide found in CDK1 (gene looked up) (VLMQDSRLYL; listed as Homo sapiens) [compound 223]	Lung		+++	+++		
56 (VLFTDEGVPKFL; listed as Homo sapiens) [compound 56]	Lung, Kidney, Liver	BRCA, Melanoma, Urinary bladder cancer, Uterine Cancer, OC		+		
261 (YLYDSETKNA; listed as Homo sapiens) [compound 261]	Kidney, Liver, Pancreas, Ovary, Esophagus			+		
38 (SLAPTPVSA; listed as Homo sapiens) [compound 38]	Pancreas	Uterine Cancer		+++		
SEQ ID NO.: 152 (KLLAVIHEL; listed as Homo sapiens)					34	2
253 (KLLDEVTYLEA; listed as Homo sapiens) [compound 253]	Liver					
9 (ILDDHLSRV; listed as Homo sapiens) [compound 9]				+++		

For part of these data: For expression read-outs the peptide stands for its source gene, whose mRNA was measured; the gene is not named for every peptide.
